± gives the standard deviation. This is a selection; strong and weak results do not stand in their true shares. Many entries were measured with a wide error.
Legend:
[1] = tested on: MILI (PIWIL2) piRISC loaded with piRNA #1 (26 nt); assay: pre-steady-state target cleavage rate (min^-1); higher = faster piRNA-guided slicing of the target; conditions: guide: piRNA #1 5'p-UGAGGUAGUAGGUUGUAUAGUAUCCA; auxiliary factor: 500 nM mouse GTSF1;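 further: 1 nM active piRISC with 0.1 nM target library at 33 °C single turnover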
In short: (§1)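 For Cleave-'n-Seq, a transcribed, DNA-blocked target RNA library […] met 1 nM active affinity-purified piRISC with one synthetic guide at 33 °C for 0–8 or 0–960 min in HEPES–potassium acetate buffer, with or without 500 nM GTSF1 partner protein. Uncleaved targets were sequenced and normalised to depth and weakly complementary targets, with three trials pooled and k3 capped at 0.0001 min^-1. A burst-and-steady-state fit supplied the pre-steady-state cleavage rate.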

[2] = tested on: EfPiwi piRISC loaded with piRNA #1 (26 nt); assay: pre-steady-state target cleavage rate (min^-1); guide: piRNA #1 5'p-UGAGGUAGUAGGUUGUAUAGUAUCCA; MIWI and MILI are mouse PIWI proteins and EfPiwi is from a freshwater sponge; tags in brackets are library labels; higher = faster piRNA-guided slicing of the target; conditions: auxiliary factor: 500 nM Ephydatia muelleri Gtsf1
In short: as §1

| Sequence | pre-steady-state target cleavage rate [1] | pre-steady-state target cleavage rate [2] |
| --- | --- | --- |
| GGAGAGGAUUCUAUAGAACCUACUACCUCA | 0.157 ± 0.011 | 0.000611 ± 0.0059 |
| GGAGUGGAUACUAUACAACCUACAUGCUCA | 0.00232 ± 0.0033 | 0.00184 ± 0.0028 |
| GGAGUGCAUACUAUACAUCCUACUACCUCA | 0.313 ± 0.015 | 0.0107 ± 0.0041 |
| GGAGACCUAUGAUAACAACCAUGUACCUCA | 0.000499 ± 0.0098 | 0.000267 ± 0.011 |
| GGAGACCUAACUAUAGAACCUACUUCCUCA | 0.00368 ± 0.005 | 0.000559 ± 0.0074 |
| GGAGUGGAUACAAUAGAACCUACUACCUCA | 0.163 ± 0.009 | 0.00115 ± 0.0028 |
| GGAGACCUAUCUAUACAACCAACUACGUCA | 0.00385 ± 0.0021 | 0.00226 ± 0.0057 |
| GGAGACCAUACGUAUACAACCUACUACCUCA | 0.212 ± 0.035 | 0.159 ± 0.064 |
| GGAGACCUAUCUAUACAUCCUAGUACCUCA | 0.0489 ± 0.012 | 0.00398 ± 0.0038 |
| GGAGACGAUACUUAACAACCUACUACCUCA | 0.134 ± 0.013 | 0.00683 ± 0.0038 |
| GGAGACCUAUGAAAACAACCUACUACCACA | 0.00203 ± 0.0057 | 0.00047 ± 0.017 |
| GGAGUGGAUUCUAUACAUCCUACUACCUCA | 0.299 ± 0.013 | 0.00479 ± 0.0026 |
| GGAGACCUUACUAUACAACCUUCUACCUGA | 0.00235 ± 0.0035 | 0.00341 ± 0.0028 |
| GGAGACCUAACUAUACAACCAACUACCACA | 0.00316 ± 0.0049 | 0.00152 ± 0.0096 |
| GGAGACCUAUCUAUACUUCCUACUACCUCA | 0.054 ± 0.013 | 0.00374 ± 0.0038 |
| GGAGUGGAUACUAUACAACCUAGAUCCUCA | 0.000386 ± 0.0052 | 0.00311 ± 0.0016 |
| GGAGACCUUACUUUACAACCUACUACCACA | 0.14 ± 0.018 | 0.00203 ± 0.005 |
| GGAGACCUUACUAUCCAACCUACUACCUCA | 0.17 ± 0.018 | 0.0791 ± 0.034 |
| GGAGACCUUACUAUACAACGCUACUACCUCA | 0.00146 ± 0.0061 | 0.00566 ± 0.0038 |
| GGAGUGGAAACUAUACAUCCUACUACCUCA | 0.275 ± 0.024 | 0.0101 ± 0.0045 |

| Sequence | pre-steady-state target cleavage rate [1] | pre-steady-state target cleavage rate [2] |
| --- | --- | --- |
| GGAGUGGUUACUAUACUACCUACUACCUCA | 0.183 ± 0.01 | 0.00596 ± 0.0023 |
| GGAGACCUAUGAUAUGUACACUACUACCUCA | 0.000945 ± 0.0074 | 0.00152 ± 0.0065 |
| GGAGUGGAUACUAUAGAUCCUACUACCUCA | 0.251 ± 0.015 | 0.0045 ± 0.0029 |
| GGAGACCUAUGAUAUGAUCCUACUACCUCA | 0.000118 ± 0.022 | 0.000685 ± 0.0057 |
| GGAGACCUUACUAUACUACGUACUACCUCA | 0.0307 ± 0.0046 | 0.00111 ± 0.003 |
| GGAGACCUAUGAUAUGUUGCAACUAGCUCA | 0.000259 ± 0.018 | 0.000113 ± 0.018 |
| GGAGACCAUACUAUACAACCUACUAGCACA | 0.0527 ± 0.018 | 0.00447 ± 0.0023 |
| GGAGACCUAUGAUAUCAACCUACUUCCACA | 0.000175 ± 0.018 | < 0.0001 |
| GGAGACCUAACUAUACAACCUACAUGGAGA [g8:g21:cont:t1A] | 0.00188 ± 0.0068 | 0.000297 ± 0.0098 |
| GGAGUGGAUACUUUACAACCUAGUACCUCA | 0.0239 ± 0.0053 | 0.00167 ± 0.002 |
| GGAGACCAUACUAUACAUGCUACUACCUCA | 0.0704 ± 0.01 | 0.00201 ± 0.0032 |
| GGAGACCUAACUAUACAUCCUACUACCUCA | 0.239 ± 0.028 | 0.00745 ± 0.0028 |
| GGAGUGGAUACUAUACAACCUAGUACGUCA | 0.000667 ± 0.0053 | 0.00381 ± 0.0014 |
| GGAGACCUAUGAUUAGAACCUACUACGUCA | 0.000174 ± 0.015 | 0.00029 ± 0.0097 |
| GGAGACCUAUGUAUACAACCUACUACCUUCA | 0.0648 ± 0.0099 | 0.00201 ± 0.0048 |
| GGAGACGAAACUAUACAAGCUACUACCUCA | 0.242 ± 0.02 | 0.00338 ± 0.0017 |
| GGAGACCUAUCUAUAGAACCUACUACGUCA | 0.0269 ± 0.0089 | 0.000307 ± 0.0078 |
| GGAGAGGAUACUAUACAACCAACUUCCUCA | 0.00119 ± 0.0043 | 0.00313 ± 0.0024 |
| GGAGUGGAUACUAUUCAUCCUACUACCUCA | 0.265 ± 0.016 | 0.0078 ± 0.0036 |
| GGAGUGGAUACAUACAACCUACUACCUCA | 0.131 ± 0.011 | 0.131 ± 0.048 |

Some of the entries above in another layout:
Sequence	pre-steady-state target cleavage rate [1]	pre-steady-state target cleavage rate [2]
GGAGACCUAUCUAUAGAACCUACUACGUCA	0.0269 ± 0.0089	0.000307 ± 0.0078
GGAGAGGAUACUAUACAACCAACUUCCUCA	0.00119 ± 0.0043	0.00313 ± 0.0024
GGAGUGGAUACUAUUCAUCCUACUACCUCA	0.265 ± 0.016	0.0078 ± 0.0036

In another format: results already given
GGAGACCUAUGAUAUGUUGCAACUAGCUCA
  pre-steady-state target cleavage rate [1] = 0.000259 ± 0.018; pre-steady-state target cleavage rate [2] = 0.000113 ± 0.018
GGAGACCAUACUAUACAACCUACUAGCACA
  pre-steady-state target cleavage rate [1] = 0.0527 ± 0.018; pre-steady-state target cleavage rate [2] = 0.00447 ± 0.0023

Next results.

| Sequence | pre-steady-state target cleavage rate [1] | pre-steady-state target cleavage rate [2] |
| --- | --- | --- |
| GGAGACCUAUGAAAACUACCUACUACCUCA | 0.0012 ± 0.0046 | 0.000787 ± 0.0069 |
| GGAGACGAUACUAUACAACCUACUAGGACA | 0.00128 ± 0.0083 | 0.00186 ± 0.0032 |
| GGAGAGGAUACUAUACAACCAUCUACCUCA | 0.00516 ± 0.0022 | 0.0052 ± 0.002 |
| GGAGACGAUACUAUACAUCCUACUACCUGA | 0.237 ± 0.031 | 0.00464 ± 0.0014 |
| GGAGACGCAUACUAUACAACCUACUACCUCA | 0.268 ± 0.024 | 0.0478 ± 0.018 |
| GGAGACCUAACUAUAGAACCUAGUACCUCA | 0.00194 ± 0.0055 | 0.00112 ± 0.0059 |
| GGAGACCUAUGUAUACAACCUACUACCUCU [g2:g19:cont:t1U] | 0.0508 ± 0.0069 | 0.404 ± 0.18 |
| GGAGUGGAUACUAUACAACCUUGAUGGAGA [g10:g26:cont:t1A] | 0.000131 ± 0.019 | 0.00116 ± 0.0022 |
| GGAGACCUAUGAUAACAAGCUACUAGCUCA | 0.00279 ± 0.0036 | 0.00131 ± 0.0069 |
| GGAGACCUAUCUAUACAACCAACUACCACA | 0.00574 ± 0.0023 | 0.00141 ± 0.0059 |
| GGAGACCUAACUAUACAACCUUCUUCCUCA | 0.00217 ± 0.0075 | 0.00182 ± 0.0056 |
| GGAGACCUAUGAAUAAAACCUACUACCUCA | 0.00212 ± 0.0028 | 0.000517 ± 0.013 |
| GGAGUGCUAACUAUACAACCUACUACCUCA | 0.128 ± 0.015 | 0.0117 ± 0.0053 |
| GGAGACCUUACUAUACAAGCUACUACCUGA | 0.158 ± 0.021 | 0.00346 ± 0.003 |
| GGAGACCUAUGAAUAAACCUACUACCUCA | 0.000469 ± 0.011 | 0.000523 ± 0.0094 |
| GGAGUCGAAACUAUACAACCUACUACCUCA | 0.18 ± 0.019 | 0.0604 ± 0.021 |
| GGAGACCAUACUAUACUACCUAGUACCUCA | 0.0453 ± 0.0095 | 0.00377 ± 0.0033 |
| GGAGACGAUACUAUACUUCCUACUACCUCA | 0.242 ± 0.016 | 0.0109 ± 0.0064 |

From the supplement of paper PMC10338343
